According to the supplement of paper PMC12872613:
Counter-ions that a name gives are not always drawn. The list shows a part of the results. Rule as the data show it: active = 0.7 or more and inactive = the rest. Most values come without repeats; read them as rough.

system: MiaPaCa-2 CLSA-25; assay: cell death relative to DMSO vehicle (fraction); higher = more cytotoxic; details: 5 µM; treatment time 48 h; medium cystine 25 µM

Compound	cell death
CC(C)(Sc1cc(C(C)(C)C)c(O)c(C(C)(C)C)c1)Sc1cc(C(C)(C)C)c(O)c(C(C)(C)C)c1 [Probucol]	inactive: 0.229
CCCCN1CCCC[C@H]1C(=O)Nc1c(C)cccc1C [Levobupivacaine HCl]	inactive: 0.182
CNC(=C[N+](=O)[O-])NCCSCc1ccc(CN(C)C)o1 [Ranitidine Hydrochloride]	inactive: 0.0851
CC(=O)Nc1nc(C)c(-c2ccc(Cl)c(S(=O)(=O)NCCO)c2)s1	inactive: 0.191
COc1ccc(-c2ccc3cc(C(=O)O)ccc3c2)cc1C12CC3CC(CC(C3)C1)C2 [Adapalene]	inactive: 0.173
C[C@H](NCc1ccc(OCc2cccc(F)c2)cc1)C(N)=O [Safinamide mesylate]	inactive: 0.0393
CC(C)c1cc(-c2n[nH]c(=O)n2-c2ccc3c(ccn3C)c2)c(O)cc1O [Ganetespib]	inactive: 0.197
CC(C)(C(=O)c1cccnc1)c1cccnc1 [Metyrapone]	inactive: 0.147
NC(=O)c1cnccn1 [Pyrazinamide]	inactive: 0.236
C[C@H](CCC(=O)NCCS(=O)(=O)O)[C@H]1CC[C@H]2[C@@H]3[C@H](O)C[C@@H]4C[C@H](O)CC[C@]4(C)[C@H]3C[C@H](O)[C@]12C [Taurocholic acid sodium salt hydrate]	inactive: 0.152
CC(C)c1nc(N(C)S(C)(=O)=O)nc(-c2ccc(F)cc2)c1/C=C/[C@@H](O)C[C@@H](O)CC(=O)O [Rosuvastatin]	inactive: 0.168
CC(C)n1cnc2c(NCCc3ccc(O)cc3)nc(-c3csc4ccccc34)nc21 [StemRegenin 1]	active: 0.75
C#CCN[C@@H]1CCc2ccccc21 [Rasagiline Mesylate]	inactive: 0.0372
Nc1nc(Cl)nc2c1ncn2[C@H]1C[C@H](O)[C@@H](CO)O1 [Cladribine]	inactive: 0.106
Cc1ccccc1C(C(=O)NC1CCCCC1)N(C(=O)Cn1cnc2ccccc21)c1cccc(F)c1 (centres undefined)	inactive: 0.146
CC[C@H]1OC(=O)[C@H](C)[C@@H](O[C@H]2C[C@@](C)(OC)[C@@H](O)[C@H](C)O2)[C@H](C)[C@@H](O[C@@H]2O[C@H](C)C[C@H](N(C)C)[C@H]2O)[C@](C)(OC)C[C@@H](C)C(=O)[C@H](C)[C@@H](O)[C@]1(C)O [Clarithromycin]	inactive: 0.178
CCN(CC)CCN(Cc1ccc(-c2ccc(C(F)(F)F)cc2)cc1)C(=O)Cn1c(SCc2ccc(F)cc2)nc(=O)c2c1CCC2 [Darapladib]	active: 0.926
O=C(O)CCCC[C@@H]1SC[C@@H]2NC(=O)N[C@@H]21 [D-Biotin]	inactive: 0.131
CC(N)CCCC(C)(C)O (centres undefined) [Heptaminol hydrochloride]	inactive: 0.0556
NNc1nncc2ccccc12 [Hydralazine hydrochloride]	inactive: 0.166
CC(C)(F)C[C@H](N[C@@H](c1ccc(-c2ccc(S(C)(=O)=O)cc2)cc1)C(F)(F)F)C(=O)NC1(C#N)CC1 [Odanacatib]	inactive: 0.396
CC(C)OC(=O)CCC/C=C\C[C@@H]1[C@@H](CC[C@@H](O)CCc2ccccc2)[C@H](O)C[C@@H]1O [Latanoprost]	inactive: 0.124
CO[C@H]1/C=C/O[C@@]2(C)Oc3c(C)c(O)c4c(c3C2=O)C2=NC3(CCN(CC(C)C)CC3)NC2=C(NC(=O)/C(C)=C\C=C\[C@H](C)[C@H](O)[C@@H](C)[C@@H](O)[C@@H](C)[C@H](OC(C)=O)[C@@H]1C)C4=O [Rifabutin]	inactive: 0.445
CC(=O)SCC(Cc1ccccc1)C(=O)NCC(=O)OCc1ccccc1 (centres undefined) [Racecadotril]	inactive: 0.0927
O=C1CCc2cc(OCCCCc3nnnn3C3CCCCC3)ccc2N1 [Cilostazol]	inactive: -0.00375
O=c1oc2cc(O)ccc2s1 [Tioxolone]	inactive: 0.00101
Cc1ncc([N+](=O)[O-])n1CCO [Metronidazole]	inactive: 0.0936
COc1ccc(CC2NCCc3cc(OC)c(OC)cc32)cc1OC (centres undefined) [Tetrahydropapaverine hydrochloride]	inactive: 0.0166
CCOC(=O)C(C)(C)Oc1ccc(Cl)cc1 [Clofibrate]	inactive: -0.038

Some values from above.
cell death, NNc1nncc2ccccc12 [Hydralazine hydrochloride] is entered as inactive: 0.166
cell death, C#CCN[C@@H]1CCc2ccccc21 [Rasagiline Mesylate] is entered as inactive: 0.0372
